This assay in a line: qHTS Assay to Find Inhibitors of Chronic Active B-Cell Receptor Signaling. The note with it: ABC-DLBCL IkBa-CBG/CBR reporter, luminescence ratio (green luciferase fused to IkBa over red control in TMD8 lymphoma cells), 4 h. Summed up: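 Doxycycline induced both beetle luciferases in TMD8 lymphoma cells; IKK-driven degradation limits the IkappaBalpha-fused green signal, while red luminescence normalises for cell number and nonspecific effects. Compounds tested up to 46 uM, 4 hrs.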

Where [1] appears, read: measured here: CBR red luminescence, cell number.
The mark [2] stands for this setting: measured here: IkBa-CBG green luminescence.

“And” between values parts separate entries of the source, which are not always exact repeats. Equal values may be shown once. This is one part of the list. These are further read-outs of the screen, such as a control signal, another cell line or another target. No call is given for them. The list favours compounds with an active or inconclusive main result. Potencies come from curve fits of mixed quality, noted in brackets.

As a reminder, the AC50 is the concentration at which the activity in the assay is half-maximal.

In the case of `Cc1ccccc1-n1c(O)c(/C=N/Nc2nc3c(c(=O)n(C)c(=O)n3C)n2C)c(=O)[nH]c1=S`, the AC50 under setting [1] was 0.651 µM [falling, partial curve, poor fit].
Turning to `CCCc1cc(C(=O)Nc2cccc(Cl)c2C)no1`, the AC50 under setting [1] is 10 µM [falling, partial curve].
`CCc1ccc2nc(N3CCN(C(=O)C4CC4)CC3)sc2c1`: under setting [1], the AC50 is 2.82 µM [rising, partial curve, poor fit].
As to `Cc1ccc(-c2nc3ccccc3c(=O)n2-c2ccc(O)cc2)cc1`, under setting [1], the AC50 was 5.01 µM [falling, partial curve, poor fit].
`NC(Cc1nc2ccccc2[nH]1)c1ccc(Cl)cc1` (stereo not drawn): under setting [1], the AC50 was 11.2 µM [falling, partial curve, poor fit].
`COc1cccc(-c2nn(Cc3ccccc3)cc2C(=O)O)c1`: the AC50 under setting [1] is 4.47 µM [rising, full curve, poor fit].
On to `O=C(N1CCN=C1SCc1cccnc1)C12CC3CC(CC(C3)C1)C2`, for which, under setting [1], the AC50 was 10 µM [falling, partial curve, poor fit].
As for `Cc1ccc(S(=O)(=O)N2CCOC2CNC(=O)C(=O)NCCc2ccc(S(N)(=O)=O)cc2)cc1` (stereo not drawn), the AC50 under setting [1] is 35.5 µM [rising, single point].
Consider `C[C@@H]1O[C@@H](O[C@H]2C[C@@H](O)[C@]3(CO)[C@H]4[C@H](O)C[C@]5(C)[C@@H](C6=CC(=O)OC6)CC[C@]5(O)[C@@H]4CC[C@]3(O)C2)[C@H](O)[C@H](O)[C@H]1O`, for which the AC50 is 9.2 µM [falling, partial curve] and 326 nM [falling, full curve] under setting [1]; 0.517 µM [rising, partial curve] under setting [2].
Take `CCOC(=O)c1c(C)c(C(=O)N2CCC3(CC2)OCCO3)c(C)n1CC`: under setting [1], the AC50 was 32.6 µM [rising, partial curve, poor fit].
Same read-out and setting: for `O=C(c1ccc2c3c(cccc13)CC2)C1CCCN(CC2CC2)C1` (stereo not drawn) the value was 15.8 µM [falling, partial curve, poor fit].
`CC(C)Oc1ccc(Cc2c(O)[nH]c(=O)[nH]c2=O)cc1`: under setting [1], the AC50 is 3.55 µM [rising, partial curve, poor fit].
In the case of `Cc1ccc(-c2nc3ccc(Cl)cc3n2OC(=O)N(C)C)cc1`, the AC50 under setting [1] is 3.26 µM [rising, partial curve, poor fit].
For `O=C1NC(=O)N(c2ccccc2F)C(=O)/C1=C/c1ccc(Oc2ccc([N+](=O)[O-])cn2)cc1`, under setting [1], the AC50 is 35.5 µM [falling, single point].
The same measure, in the same setting: for `COc1cccc(C2C([N+](=O)[O-])=C(N)Oc3c2c(=O)oc2ccccc32)c1` (stereo not drawn) the value was 1.64 µM [falling, full curve, poor fit]; for `COc1ccc(/C=C/C2=CCN(C)CC2)cc1`, 14.1 µM [rising, partial curve, poor fit]; for `CC1CC(OP(O)(=S)c2ccc(N(C)C)cc2NC(=O)c2cccs2)CC(C)(C)C1` (stereo not drawn), 31.6 µM [rising, single point].
`O=C(CN1CCCCC1)c1cccc(Br)c1`: the AC50 under setting [1] is 0.82 µM [falling, partial curve, poor fit].
On to `O=c1c2ccccc2nc(/C=C/c2ccccc2)n1-c1ccc(O)cc1`, for which the AC50 under setting [1] was 4.47 µM [falling, partial curve, poor fit].
Take `C=CCn1c(O)c(C(CC)=NCCc2c[nH]c3ccccc23)c(=O)[nH]c1=O`: the AC50 under setting [1] is 10 µM [falling, partial curve, poor fit].
Regarding `O=C(CSC1c2ccccc2-c2ccccc21)N/N=C/c1ccc(C(=O)O)cc1`, the AC50 under setting [1] is 10 µM [falling, partial curve, poor fit].
In the case of `COc1ccc2[nH]c3c(c2c1)CCN[C@H]3C`, the AC50 under setting [1] is 11.2 µM [falling, single point].
Take `CCC(=Nc1ccc2c(c1)CCC2)c1c(O)n(-c2ccc(OC)cc2)c(=O)[nH]c1=O`: under setting [1], the AC50 is 0.708 µM [rising, full curve, poor fit].
Regarding `CN(C)c1nnnn1-c1ccc(Oc2ncc(C(F)(F)F)cc2Cl)cc1`, under setting [1], the half-maximal activity concentration (AC50) was 25.1 µM [falling, single point].
For `Nc1c2c(nc3sc4c(c13)CCCC4)CCCC2`, the AC50 under setting [1] is 20 µM [falling, single point].
In the case of `Fc1ccc(C(OCCN2CCCC2)c2ccc(Br)cc2)cc1` (stereo not drawn), under setting [1], the AC50 was 14.1 µM [falling, partial curve].
As for `CC1CN(CC(=O)c2ccccc2Cl)CC(C)O1` (stereo not drawn), under setting [2], the AC50 is 14.1 µM [falling, partial curve, poor fit].
Take `CCOP(=O)(OCC)C(NC(=O)Nc1ccc(Cl)c(Cl)c1)c1ccccc1` (stereo not drawn): the AC50 under setting [1] was 23.1 µM [falling, single point].
On to `NC(=O)c1cn(C2OC(CO)C(O)C2O)c2ncnc(N)c12` (stereo not drawn), for which the AC50 under setting [1] is 3.26 µM [falling, partial curve, poor fit].
As to `Cn1c(O)c(/C=C2\C=c3ccccc3=NC2=O)c(=O)n(C)c1=O`, the AC50 under setting [1] is 11.2 µM [falling, partial curve, poor fit].
Turning to `Fc1ccccc1CCNCc1cccc(Cl)c1Cl`, the AC50 under setting [1] was 11.2 µM [rising, partial curve, poor fit].
Same read-out and setting: for `Cc1sc(C(=O)Nc2ccc3ccccc3c2)cc1CC(=O)O` the value was 7.94 µM [falling, partial curve, poor fit]; for `Cc1c(NP(=O)(C(C)(C)C)C(C)(C)C)c(=O)n(-c2ccccc2)n1C`, 35.5 µM [rising, partial curve, poor fit].
In the case of `O=C1NC(=O)C(=Cc2cccc(OCCOc3ccccc3)c2)C(=O)N1`, the concentration at half-maximal activity (AC50) under setting [1] was 11.2 µM [falling, partial curve, poor fit].
In the case of `COCCN1Cc2cc(=O)n3c([nH]c4ccccc43)c2C1=N`, the AC50 under setting [1] is 28.2 µM [falling, partial curve, poor fit].
Consider `CCOc1ccccc1NC(=O)Cn1c(=O)oc2ccccc21`, for which the AC50 under setting [1] was 35.5 µM [falling, single point].
Take `O=C(c1ccccc1)C(CN1CCCC1)c1ccccc1` (stereo not drawn): the AC50 under setting [1] is 9.2 µM [falling, partial curve].
On the same count and under the same terms, under `COc1ccc(/C=C2\C(=O)NC(=O)N(Cc3ccccc3)C2=O)c(OC)c1OC` stands 35.5 µM [falling, single point]; under `Cc1cc(O)c2c3c(c(=O)oc2c1)CCC(C)C3` (stereo not drawn), 11.2 µM [rising, partial curve, poor fit].
Same read-out and setting: under `COc1ccc([N+](=O)[O-])c(S(=O)(=O)c2ccccc2)n1` stands 11.2 µM [falling, partial curve]; under `CCCCOP(=O)(c1ccc(N(C)C)cc1)C(Nc1ccccc1)c1ccccc1` (stereo not drawn), 16.4 µM [falling, partial curve].
In the case of `COC1CC(OC2CCC3(C)C(CCC4C3CCC3(C)C(C5=CC(=O)OC5)C(OC(C)=O)CC43O)C2)OC(C)C1OC1OC(COC2OC(CO)C(O)C(O)C2O)C(O)C(O)C1O` (stereo not drawn), the AC50 under setting [1] is 0.631 µM [rising, partial curve].
As to `Nc1c(Cl)cc([N+](=O)[O-])cc1Cl`, under setting [1], the AC50 is 20.6 µM [rising, single point].
For the compound `O=C(c1ccc(Cl)cc1)C1CCCN(Cc2cccc3ncccc23)C1` (stereo not drawn), the AC50 under setting [1] is 3.98 µM [rising, full curve, poor fit].
As for `Cn1c(O)c(/C=C2\N=c3ccccc3=C2CCNC(=S)NC2CC2)c(=O)n(C)c1=O`, the AC50 under setting [1] was 35.5 µM [rising, single point].
For the compound `CC(C)(C)n1cc(C(=O)c2ccc3ccccc3c2O)cn1`, the AC50 under setting [1] was 6.31 µM [rising, partial curve, poor fit].
On the same count and under the same terms, for `BrCC(Br)C1CCC(Br)C(Br)C1` (stereo not drawn) the value was 14.6 µM [falling, partial curve, poor fit].
Consider `COC(=O)[C@]12OC[C@]34C([C@@H](O)[C@@H]1O)[C@]1(C)CC(=O)C(O)=C(C)[C@@H]1C[C@H]3OC(=O)[C@H](O)[C@@H]24` (stereo partly drawn), for which the AC50 under setting [1] is 0.708 µM [falling, full curve].
Turning to `CC/C(=N\NC(=O)c1ccccc1O)c1c(O)n(Cc2ccccc2)c(=O)[nH]c1=O`, under setting [1], the AC50 was 4.47 µM [falling, full curve].
As to `COc1ccc(CCN(C)Cc2ccc(F)cc2F)cc1OC`, the AC50 under setting [1] is 0.651 µM [rising, full curve, poor fit].
The same measure, in the same setting: under `CC1CCN(CC(=O)c2ccccc2Cl)CC1` stands 0.00517 µM [falling, full curve, poor fit].
As for `NC(=S)N/N=C/c1coc2ccccc2c1=O`, the AC50 under setting [1] was 1.3 µM [rising, full curve].
Regarding `Cc1cc(C(=O)N=Nc2c(O)n(C)c3ccccc23)c(C)o1`, the AC50 under setting [1] is 29.1 µM [rising, single point].
Consider `COc1ccc(-n2c(/C=C/c3ccc4c(c3)OCO4)nc3ccccc3c2=O)cc1`, for which, under setting [1], the AC50 is 16.4 µM [rising, single point].
Regarding `Cc1ccc(NC(=O)CSc2ncnc3ccccc23)cc1S(=O)(=O)N1CCOCC1`, the AC50 under setting [1] is 15.8 µM [falling, single point].
With `CN1C2CCC1C(C(=O)O)C(OC(=O)c1ccccc1)C2` (stereo not drawn), under setting [1], the AC50 is 16.4 µM [rising, partial curve, poor fit].
In the case of `Cn1c2ccccc2c2cnn(CC(=O)N3CCC4(CC3)OCCO4)c(=O)c21`, the AC50 under setting [1] was 0.00517 µM [falling, full curve, poor fit].
For the compound `O=C1/C(=C/c2ccccc2)C[C@@]2(O)[C@H]3Cc4ccc(O)c5c4[C@@]2(CCN3CC2CC2)C1O5` (stereo partly drawn), the AC50 under setting [1] is 3.66 µM [falling, full curve] and the AC50 under setting [2] is 14.6 µM [rising, partial curve, poor fit].
With `COc1cccc(CNCCc2cccc(F)c2)c1OC`, the AC50 under setting [1] is 3.55 µM [rising, full curve, poor fit].
On to `COc1ccc(C=C2C(=O)N(C)C(=O)N(C)C2=O)cc1COc1ccc(NC(C)=O)cc1`, for which the AC50 by setting is: under setting [1], 28.2 µM [rising, single point]; under setting [2], 35.5 µM [falling, partial curve, poor fit].

These data come from PubChem BioAssay AID493014 (National Center for Advancing Translational Sciences (NCATS), 2011).
